Test results reported in patent EP1147413B1.
Results are given in words; binding and its absence hold for the method and conditions named. In cells and extracts the contact can be indirect. Some entries that bind do so weakly or less than the wild type. Where a sequence is shown, tags or fusion partners need not be part of it.

Experiments:
[1] = biological target: T1, mature mouse GDF-8 with C-terminal FLAG, processed from WT-F-GDF-8 in QM-7 cells (mouse) (UniProt O08689); test: co-purification by anti-FLAG affinity chromatography, size fractionation and reporter assay of the complexes
T1 sequence (looked up): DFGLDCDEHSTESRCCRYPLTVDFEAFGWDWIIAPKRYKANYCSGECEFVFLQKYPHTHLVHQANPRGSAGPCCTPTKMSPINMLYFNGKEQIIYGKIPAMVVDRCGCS

[2] = biological target: T1, mature mouse GDF-8 with C-terminal FLAG, processed from WT-F-GDF-8 in QM-7 cells (mouse); test: co-purification on anti-FLAG affinity gel from medium of QM-7 cells transfected with WT GDF-8-FLAG, N-terminal sequencing of the bands

B1: mouse GDF-8 pro-domain without tag, lacking the signal peptide, released from WT-GDF-8-F in QM-7 cells (protein, UniProt O08689 20-267, looked up)
chain: GPVDLNEGSEREENVEKEGLCNACAWRQNTRYSRIEAIKIQILSKLRLETAPNISKDAIRQLLPRAPPLRELIDQYDVQRDDSSDGSLEDDDYHATTETIITMPTESDFLMQADGKPKCCFFKFSSKIQYNKVVKAQLWIYLRPVKTPTTVFVQILRLIKPMKDGTRYTGIRSLKLDMSPGTGIWQSIDVKTVLQNWLKQPESNLGIEIKALDENGHDLAVTFPGPGEDGLNPFLEVKVTDTPKRSRR
- binding [1]: binds
- binding [2]: binds
